Source: patent EP4201483A1, “LPL1 DERIVED IMMUNE ENHANCING PEPTIDES” (Eberhard-Karls-Universität Tübingen, priority 2021, dated 2023)
“Also recorded” adds a separate entry of the source. For part of these data: Not every detail of the peptide structures is certain; ends, links or a residue may be inferred. For part of these data: At least one structure is not confirmed: it was looked up by name or label, or the drawing left a doubt. Where no end group is shown, it is not given here.

Experiments:
N/TERT1 cells [1] = assay: S. aureus USA300 internalization by N/TERT1 cells; format: cell-based; conditions: Fig. 2; immortalized human keratinocytes; L15 at 20 µM, L13 at 30 µM, geldanamycin at 5 µM
HaCaT cells [2] = assay: S. aureus USA300 invasion / internalization by HaCaT keratinocytes; format: cell-based, human; conditions: Fig. 2; L15 at 20 µM, L13 at 30 µM, geldanamycin at 5 µM
S. aureus USA300 [3] = assay: Systemic infection model with Galleria mellonella; format: in vivo; conditions: larvae pretreated, then infected with S. aureus USA300; L13 30 µM, L15 20 µM, geldanamycin 10 µM
HaCaT cells [4] = assay: S. aureus USA300 invasion / internalization by HaCaT keratinocytes; format: cell-based, human; parameters: key to Invasion: ⇑: increased invasion and F-actin level; ⇓: decreased invasion and F-actin level; conditions: for S. aureus internalization by HaCaT cells: Fig. 2, L15 at 20 µM, L13 at 30 µM, geldanamycin at 5 µM; for Invasion: Triggering invasion of USA300 by keratinocytes (HaCaT)
Experimental: (§1) To identify Lpli motifs that interact with the target protein Hsp90α the inventors synthesized peptides of various length covering the whole Lpli protein. All the peptides (> 40) were tested for their ability a) to interact with Hsp90α, and b) to trigger S. aureus internalization by keratinocyte-like HaCaT cells. Table 1: Selected Lpl1 derived peptides with their effect on USA300 invasion in HaCaT keratinocytes, interaction with Hsp90α and F-actin levels in HaCaT cells
The inventors compared the effect on host internalization of L13 and L15 with that of geldanamycin. Geldanamycin is a well-known cell permeable anti-neoplastic drug that competes with ATP for binding to Hsp90, thus inhibiting Hsp90 activity (Gorska et al., 2012). This in turn leads to inactivation, destabilization, and eventual degradation of Hsp90 client proteins, The geldanamycin analog 17AAG decreased F-actin formation upon Hsp90 inhibition (Taiyab & Rao Ch, 2011).

N/TERT1 cells [5] = assay: S. aureus USA300 internalization by N/TERT1 cells; format: cell-based; conditions: Fig. 2; immortalized human keratinocytes; L15 at 20 µM, L13 at 30 µM, geldanamycin at 5 µM; remark: listed apart in the source
HaCaT cells [6] = assay: F-actin levels in HaCaT cells; format: cell-based, human; parameters: key: ⇑: increased invasion and F-actin level; ⇓: decreased invasion and F-actin level
Experimental: as §1

S. aureus USA300 [7] = assay: Systemic infection model with Galleria mellonella; format: in vivo; conditions: larvae pretreated, then infected with S. aureus USA300; L13 30 µM, L15 20 µM, geldanamycin 10 µM; remark: listed apart in the source
[8] = system: peripheral blood mononuclear cells (PBMCs); assay: Cytokine production by stimulated peripheral blood mononuclear cells (LegendPlex-Kits); format: cell-based; conditions: for levels of TNF, IL-1β, IL-6 or IL-10 induced: PBMCs from different donors, MDP 20 µg/ml, others 6 and 30 µg/ml
S. aureus = assay: Septic arthritis mouse model (mouse sepsis model); format: in vivo
Experimental: The figures show: • Figure 1: Extent of sequence homology of the nine Lpl proteins encoded by the lpl operon in S. aureus USA300. […] LSP, leader signal peptide. Total length without LSP is 267 aa. We have chosen Lpli as a prototype of Lpl proteins for further studies. • Figure 2: L13 and L15 inhibit S. aureus internalization by HaCaT cells and N/TERT1 cells. N/TERT-1 are immortalized human keratinocytes. L15 was used at 20 µM), L13 at 30 µM and geldanamycin at 5 µM. SNC1 is representative for the many peptides that had no effect • Figure 3: Alignment of Lpl protein homologs. (A) Multiple sequence alignment of Lpls generated by using SnapGene software. Amino acids that match the Lpli sequence are highlighted in yellow. […] A therapeutic model (treatment at intervals post-infection) is already envisaged in the course of this project. • Figure 5: Quantification of the secreted cytokine IL-23 after stimulation of peripheral blood mononuclear cells of different donors with various cell wall components of Staphylococcus aureus. […] The measured IL-23 concentrations are depicted in pg/ml ± standard error of mean (SEM). • Figure 6: Prediction of Lpli structure and localization of L15 (top row, binding area indicated by white arrows) and L13 (bottom row, binding area indicated by white arrows) in Lpli. […]

## COC1=C2C[C@@H](C)C[C@H](OC)[C@H](O)[C@@H](C)/C=C(\C)[C@H](OC(N)=O)[C@@H](OC)/C=C\C=C(/C)C(=O)NC(=CC1=O)C2=O [geldanamycin]
N/TERT1 cells [1]
  S. aureus internalization by N/TERT1 cells: inhibition of internalization
HaCaT cells [2]
  S. aureus internalization by HaCaT cells: inhibition of internalization
S. aureus USA300 [3]
  mortality / survival of larvae: further reduced survival

## DEIVKELRSRYNIST [SNC1, DEIVKELRSRYNIST]
HaCaT cells [4]
  S. aureus internalization by HaCaT cells: no effect
  Invasion: no effect
N/TERT1 cells [5]
  S. aureus internalization by N/TERT1 cells: no effect
HaCaT cells [6]
  F-actin levels: no effect

## GHYFVTTFY [Peptide L13, GHYFVTTFY]
HaCaT cells [4]
  S. aureus internalization by HaCaT cells: inhibit; also recorded: almost as efficient as that of geldanamycin
  Invasion: reduced and ⇓
S. aureus USA300 [7]
  mortality / survival of larvae: significant improvement; also recorded: significantly decreased
N/TERT1 cells [5]
  S. aureus internalization by N/TERT1 cells: inhibit; also recorded: almost as efficient as that of geldanamycin
HaCaT cells [6]
  F-actin levels: reduced and ⇓
[8]
  levels of TNF, IL-1β, IL-6 or IL-10 induced: no or only low levels
[8]; PBMCs of different donors, 6 and 30 µg/ml
  secreted cytokine IL-23: induces

## RSRYNISTEKSPILKMHIDGDLKGSSVGYRKLEIDFSK [MNC3]
HaCaT cells [4]
  Invasion: ⇑
HaCaT cells [6]
  F-actin levels: ⇑

## TAKGHYFVTTFYRNG [Peptide L15, TAKGHYFVTTFYRNG]
HaCaT cells [4]
  S. aureus internalization by HaCaT cells: inhibit; also recorded: L13 was more efficient than L15
  Invasion: reduced and ⇓
S. aureus USA300 [7]
  mortality / survival of larvae: significant improvement; also recorded: significantly decreased
N/TERT1 cells [5]
  S. aureus internalization by N/TERT1 cells: inhibit; also recorded: L13 was more efficient than L15
HaCaT cells [6]
  F-actin levels: reduced and ⇓
[8]
  levels of TNF, IL-1β, IL-6 or IL-10 induced: no or only low levels
S. aureus; mice treated with L15 before application of the bacteria
  weight loss: less dramatic
S. aureus; pretreated with L15 one hour before intravenous infection with S. aureus
  mice survived: 100%
